The target in test [1] is endogenous PRMT5 (human (endogenous in HEK293)) (UniProt O14744). As to the kind of experiment: co-IP; endogenous proteins in HEK293 lysate (10 mM Tris pH 7.5, 150 mM NaCl, 0.5 mM EDTA, 0.5% NP40); rabbit IgG, FAM47E antibody or PRMT5 antibody, Protein A Dynabeads, 10 h at 4°C.
Test [2] deals with endogenous FAM47E (human (endogenous in HEK293)) (UniProt Q6ZV65). Described as above.

Amino acid sequences for entries named in this document (tags omitted). A change or cut given only in a name is not applied to a line headed by its entry.
UniProt O14744: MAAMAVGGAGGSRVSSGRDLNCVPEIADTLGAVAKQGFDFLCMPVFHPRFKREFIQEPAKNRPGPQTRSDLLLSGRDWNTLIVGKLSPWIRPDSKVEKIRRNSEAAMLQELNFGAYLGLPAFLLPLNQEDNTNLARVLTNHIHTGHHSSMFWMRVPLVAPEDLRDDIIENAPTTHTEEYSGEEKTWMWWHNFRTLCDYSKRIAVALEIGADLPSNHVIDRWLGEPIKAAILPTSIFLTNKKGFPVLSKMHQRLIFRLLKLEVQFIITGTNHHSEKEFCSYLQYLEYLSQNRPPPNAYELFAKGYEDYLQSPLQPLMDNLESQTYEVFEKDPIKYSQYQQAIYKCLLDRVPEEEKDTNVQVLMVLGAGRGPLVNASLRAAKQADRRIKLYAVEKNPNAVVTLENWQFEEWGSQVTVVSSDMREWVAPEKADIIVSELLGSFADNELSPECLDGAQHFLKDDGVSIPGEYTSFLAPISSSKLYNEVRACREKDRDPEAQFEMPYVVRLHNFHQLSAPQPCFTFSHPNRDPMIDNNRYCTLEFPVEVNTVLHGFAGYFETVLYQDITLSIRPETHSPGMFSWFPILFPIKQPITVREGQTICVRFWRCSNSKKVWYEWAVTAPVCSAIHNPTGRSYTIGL
UniProt Q6ZV65: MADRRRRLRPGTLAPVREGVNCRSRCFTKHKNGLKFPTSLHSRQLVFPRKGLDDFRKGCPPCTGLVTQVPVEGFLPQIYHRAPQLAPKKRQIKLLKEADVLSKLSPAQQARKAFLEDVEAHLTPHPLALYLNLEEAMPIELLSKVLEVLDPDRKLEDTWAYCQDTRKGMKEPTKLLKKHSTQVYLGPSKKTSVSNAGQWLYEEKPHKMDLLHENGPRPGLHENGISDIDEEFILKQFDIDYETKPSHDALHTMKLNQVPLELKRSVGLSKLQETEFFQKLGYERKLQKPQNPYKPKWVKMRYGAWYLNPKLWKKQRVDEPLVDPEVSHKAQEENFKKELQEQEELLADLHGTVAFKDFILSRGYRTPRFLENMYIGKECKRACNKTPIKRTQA

These are yes or no findings as the source states them, for the method shown. In cells and extracts the contact can be indirect. Binding calls can cover weak binding; strength is not graded here.

On to “endogenous FAM47E (from UniProt Q6ZV65-2)”, for which the binding entry in test [1] is on record as “binds”. For the substance “endogenous PRMT5 (from UniProt O14744 1-637) (enzyme)”, the binding entry in test [2] is given as “binds”.
